Some of the results follow. Single values are uncertain, as repeats are few or missing.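 Labelled rat cortical synaptosomes were engulfed by primary human fetal astrocytes. Engulfment equaled a red/green ratio, corrected for calcein live-cell signal and normalized to the plate median. Compounds were toxic when calcein dropped over 30%, and reduced phagocytosis when below 70% of the median above 5 µM.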
Key:
Human fetal astrocytes [1] = assay: loss of total cells relative to no-compound high-control median (toxicity); higher = more toxic (fewer cells); conditions: 24 h
Human fetal astrocytes [2] = assay: synaptosome phagocytosis (pHrodo/calcein intensity ratio) relative to plate median of data wells; higher = more phagocytosis; conditions: 24 h

SMILES	loss of total cells (Human fetal astrocytes [1]; 1.39 µM)	loss of total cells (Human fetal astrocytes [1]; 2.78 µM)	loss of total cells (Human fetal astrocytes [1]; 5.56 µM)	loss of total cells (Human fetal astrocytes [1]; 11.11 µM)	loss of total cells (Human fetal astrocytes [1]; 22.22 µM)	synaptosome phagocytosis (Human fetal astrocytes [2]; 1.39 µM)	synaptosome phagocytosis (Human fetal astrocytes [2]; 2.78 µM)	synaptosome phagocytosis (Human fetal astrocytes [2]; 5.56 µM)	synaptosome phagocytosis (Human fetal astrocytes [2]; 11.11 µM)	synaptosome phagocytosis (Human fetal astrocytes [2]; 22.22 µM)
CC(C)OC(=O)C(C)(C)Oc1ccc(C(=O)c2ccc(Cl)cc2)cc1 [Fenofibrate]	-21.6%	-12.5%	-7.5%	-0.8%	38%	93.9%	120%	107%	99.8%	104%
CC1(C)O[C@@H]2C[C@H]3[C@@H]4C[C@H](F)C5=CC(=O)C=C[C@]5(C)[C@H]4[C@@H](O)C[C@]3(C)[C@]2(C(=O)CO)O1	-2.5%	-5.2%	14.1%	-4.7%	10.8%	118%	88.4%	89.9%	84%	140%
CCCCC(CC)COC(=O)c1ccccc1O (stereo not given)	-19.9%	4.7%	28.2%	-6.5%	9.3%	101%	108%	116%	102%	87.7%
O=C(O)c1cc(O)c(O)c(O)c1	17.7%	-1.1%	21%	32.2%	24.2%	128%	107%	126%	106%	106%
CCOC(N)=O	-12.1%	-46.8%	-12.4%	-0.3%	-7.8%	102%	93.8%	106%	85.8%	106%
COC(=O)[C@@]1(C)CCC[C@]2(C)c3ccc(O)c(C(C)C)c3CCC12 (stereo not given in full)	14.1%	18.4%	15.2%	21.3%	29.5%	125%	69%	100%	61.6%	69.3%
c1ccc2[nH]c(-c3cscn3)nc2c1	7.4%	16.6%	-14.6%	4.9%	2.7%	94.3%	69.1%	118%	111%	114%
O=c1[nH]c(=O)n([C@H]2C[C@H](O)[C@@H](CO)O2)cc1F	-36.3%	-19%	11.8%	37%	8.4%	114%	104%	125%	103%	130%
CC(C)=CC1C(CO)C1(C)C (stereo not given)	-8.2%	6.1%	1.5%	14.9%	20%	117%	128%	134%	114%	123%
OC[C@H]1O[C@H]([S-])[C@H](O)[C@@H](O)[C@@H]1O.[Au+]	-32.4%	4.6%	51.4%	81.3%	90.1%	99.6%	98.7%	93.9%	70.5%	56.5%
CC(=O)OC1CC2(C)C(C(C)=O)CCC2C2CCC3=CC(=O)CCC3(C)C12 (stereo not given)	-23%	2.5%	-8.8%	16.9%	-4.4%	57.3%	107%	93.9%	110%	85.9%
O=C(O)c1ccc2c(c1)OCO2	-9%	-13.4%	-6.6%	10.8%	28.1%	98.3%	103%	141%	131%	96.4%
CC1(C)S[C@@H]2[C@H](NC(=O)[C@H](N)c3ccccc3)C(=O)N2[C@H]1C(=O)O	6.6%	-15.5%	0.9%	-1.6%	6.2%	107%	98.4%	108%	90%	124%
Nc1ccc(C(=O)NCC(=O)O)cc1	-19.4%	-25.4%	8.7%	8.2%	7.2%	134%	117%	132%	117%	107%
CC(C)NC(=N)NC(=N)Nc1ccc(Cl)cc1	19.1%	2.1%	17.7%	24.2%	27.2%	100%	122%	102%	78.8%	79.7%
CO[C@H]1/C=C/O[C@@]2(C)Oc3c(C)c(O)c4c(O)c(c5c(nc6cc(C)ccn65)c4c3C2=O)NC(=O)/C(C)=C\C=C\[C@H](C)[C@H](O)[C@@H](C)[C@@H](O)[C@@H](C)[C@H](OC(C)=O)[C@@H]1C	24.9%	-5.2%	9.9%	-7%	20.4%	99.8%	132%	99.5%	128%	115%
COc1ccc(-c2oc3ccccc3c(=O)c2OC)cc1	-27%	-12.6%	-2.9%	-6.1%	-13.3%	87.7%	82.5%	92.6%	88.2%	98%
Cc1ncc([N+](=O)[O-])n1CC(C)O (stereo not given) [1-(2-Methyl-5-nitro-imidazol-1-yl)-propan-2-ol]	6.1%	11.9%	15.9%	11.3%	19.7%	95.5%	135%	64.5%	129%	133%
Nc1ccc(S(=O)(=O)NC(=O)c2ccccc2)cc1	-13.4%	-28.1%	-27.2%	-4.3%	21%	106%	130%	115%	92.2%	122%
CC(=O)OCC(=O)[C@@]1(O)CC[C@H]2[C@@H]3CCC4=CC(=O)CC[C@]4(C)[C@H]3[C@@H](O)C[C@@]21C	-9.2%	-21.4%	-25.1%	10.1%	-9.4%	115%	119%	120%	83.6%	95.2%
CNCCc1ccccn1	14.5%	-32.2%	-2.1%	3.2%	-18.5%	93.8%	113%	92.4%	104%	114%
CCCCCC(C)N (stereo not given)	-0.3%	-9.8%	-7.7%	6.1%	31.3%	118%	95.7%	94.9%	107%	114%

An excerpt of these results, in markdown:

| SMILES | loss of total cells (Human fetal astrocytes [1]; 1.39 µM) | loss of total cells (Human fetal astrocytes [1]; 2.78 µM) | loss of total cells (Human fetal astrocytes [1]; 5.56 µM) | loss of total cells (Human fetal astrocytes [1]; 11.11 µM) | loss of total cells (Human fetal astrocytes [1]; 22.22 µM) | synaptosome phagocytosis (Human fetal astrocytes [2]; 1.39 µM) | synaptosome phagocytosis (Human fetal astrocytes [2]; 2.78 µM) | synaptosome phagocytosis (Human fetal astrocytes [2]; 5.56 µM) | synaptosome phagocytosis (Human fetal astrocytes [2]; 11.11 µM) | synaptosome phagocytosis (Human fetal astrocytes [2]; 22.22 µM) |
| --- | --- | --- | --- | --- | --- | --- | --- | --- | --- | --- |
| CC1(C)O[C@@H]2C[C@H]3[C@@H]4C[C@H](F)C5=CC(=O)C=C[C@]5(C)[C@H]4[C@@H](O)C[C@]3(C)[C@]2(C(=O)CO)O1 | -2.5% | -5.2% | 14.1% | -4.7% | 10.8% | 118% | 88.4% | 89.9% | 84% | 140% |
| CCCCC(CC)COC(=O)c1ccccc1O (stereo not given) | -19.9% | 4.7% | 28.2% | -6.5% | 9.3% | 101% | 108% | 116% | 102% | 87.7% |
| COC(=O)[C@@]1(C)CCC[C@]2(C)c3ccc(O)c(C(C)C)c3CCC12 (stereo not given in full) | 14.1% | 18.4% | 15.2% | 21.3% | 29.5% | 125% | 69% | 100% | 61.6% | 69.3% |

(continued)

SMILES	loss of total cells (Human fetal astrocytes [1]; 1.39 µM)	loss of total cells (Human fetal astrocytes [1]; 2.78 µM)	loss of total cells (Human fetal astrocytes [1]; 5.56 µM)	loss of total cells (Human fetal astrocytes [1]; 11.11 µM)	loss of total cells (Human fetal astrocytes [1]; 22.22 µM)	synaptosome phagocytosis (Human fetal astrocytes [2]; 1.39 µM)	synaptosome phagocytosis (Human fetal astrocytes [2]; 2.78 µM)	synaptosome phagocytosis (Human fetal astrocytes [2]; 5.56 µM)	synaptosome phagocytosis (Human fetal astrocytes [2]; 11.11 µM)	synaptosome phagocytosis (Human fetal astrocytes [2]; 22.22 µM)
NC1(C(=O)O)CCCC1	17%	16.2%	5.1%	2.1%	15.9%	86.1%	123%	113%	148%	96.3%
CC(C)c1c(O)ccc2c1CC[C@H]1C(C)(C)CCC[C@]21C	-12%	2%	42%	35.5%	43.3%	109%	101%	118%	128%	64.8%
CS(=O)(=O)CCCCN=C=S	17.7%	19.1%	8.7%	15.5%	29.5%	116%	97.5%	94.6%	78.8%	112%
CN(C)/N=N/c1nc[nH]c1C(N)=O [Dacarbazine DIC DTIC DTIE ICDT ICDMT DeticeneDTIC-Dome]	4.5%	-35.6%	-15.3%	-15.3%	-14.9%	89.4%	118%	100%	98%	108%
C[C@]12CC[C@@H]3c4ccc(OS(=O)(=O)O)cc4CC[C@H]3[C@@H]1CCC2=O	-45.2%	-27%	-4.3%	0.3%	14.6%	97.3%	102%	127%	106%	112%
CC(C)(CO)C(O)C(=O)NCCCO (stereo not given)	-21%	-18.3%	-8.1%	36.4%	-5.9%	101%	111%	106%	123%	103%
COc1cccc2c1CCC1=CC(=O)CC[C@@]12C	-17%	4.7%	32.1%	1.9%	10%	90.1%	116%	146%	102%	141%
CC(=O)O[C@@H]1CC(=O)[C@@]2(C)C(CC(=O)[C@]3(C)C2CC[C@@]2(C)[C@H](c4ccoc4)OC(=O)C4OC423)C1(C)C (stereo not given in full)	-11.2%	-15.9%	45.8%	-2.6%	33.7%	80.1%	124%	132%	113%	135%
COc1ccc(-c2coc3cc(O)ccc3c2=O)c(O)c1O	-7.6%	-8.6%	24.4%	35.5%	17.4%	110%	101%	98%	122%	75.5%
CC(C)CCC[C@@H](C)[C@H]1CC[C@H]2[C@@H]3CC=C4C[C@@H](O)CC[C@]4(C)[C@H]3CC[C@]12C	-5.6%	-12.5%	-7%	-8.9%	-32.5%	98.4%	97.7%	90.8%	119%	131%
CN(C)c1ccc(C(=C2C=CC(=[N+](C)C)C=C2)c2ccc(N(C)C)cc2)cc1	11.6%	-2.4%	18.8%	48.7%	96.4%	81.7%	57.8%	63.8%	63.6%	38.2%
COc1cc(OC)c2c(=O)c(OC)c(-c3ccc(OC)c(OC)c3)oc2c1	15.5%	11.2%	5.1%	5.4%	11.4%	112%	133%	81.2%	113%	142%
CC(=O)c1c(O)c(C)c(O)c2c1OC1=CC(=O)C(C(C)=O)C(=O)C12C (stereo not given)	-2.5%	3.3%	-9.9%	9.7%	3.3%	116%	107%	97.5%	115%	128%
C=C1C[C@]23C[C@@]1(O)CC[C@H]2[C@@]12C=C[C@H](O)[C@@](C)(C(=O)O1)[C@H]2[C@@H]3C(=O)O	-3.3%	-4.7%	29%	46.5%	1.1%	121%	95.2%	118%	128%	103%
CC(C)CCCC(C)N (stereo not given)	19.9%	12%	-16.8%	32.3%	-16.7%	153%	128%	103%	92.5%	57.7%
CO[C@@H]1[C@@H](O[C@@H]2O[C@H](C)[C@@H](O[C@H]3C[C@@](C)(O)[C@@H](OC(=O)CC(C)C)[C@H](C)O3)[C@H](N(C)C)[C@H]2O)[C@@H](CC=O)C[C@@H](C)[C@@H](O)/C=C/C=C/C[C@@H](C)OC(=O)C[C@H]1OC(C)=O	-22.4%	-11.9%	-2.1%	-13.3%	7.9%	134%	113%	117%	142%	118%
CC[C@H]1OC(=O)C[C@@H](O)[C@H](C)[C@@H](O[C@@H]2O[C@H](C)[C@@H](O[C@H]3C[C@@](C)(O)[C@@H](O)[C@H](C)O3)[C@H](N(C)C)[C@H]2O)[C@@H](CC=O)C[C@@H](C)C(=O)/C=C/C(C)=C/[C@@H]1CO[C@@H]1O[C@H](C)[C@@H](O)[C@@H](OC)[C@H]1OC	-29%	16.7%	-10.6%	46.2%	7.8%	109%	137%	106%	153%	118%
CCCCC1(COC(=O)CCC(=O)O)C(=O)N(c2ccccc2)N(c2ccccc2)C1=O	4.7%	23.5%	28.3%	16.3%	9.1%	106%	131%	98.2%	110%	118%
Nc1nc(N)c2nc(-c3ccccc3)c(N)nc2n1 [Triamterene]	-8.6%	-13.9%	-2.8%	-14.7%	14.3%	111%	115%	124%	95.3%	118%
C=C1CC[C@H](O)C/C1=C/C=C1\CCC[C@]2(C)[C@@H]([C@H](C)CCCC(C)C)CC[C@@H]12	12.2%	-11.2%	-9.8%	10.1%	51.4%	113%	75.2%	61.5%	93.5%	52.6%
C=CC(C1=CC(=O)C(OC)=CC1=O)c1ccccc1 (stereo not given)	4.7%	1.3%	-20.6%	41.3%	2.6%	102%	100%	89%	123%	90.3%

Source: the supplement of paper PMC10689618
